Source: patent publication US20260194540A1 (ARIZONA BOARD OF REGENTS ON BEHALF OF ARIZONA STATE …, published 2026)
Results are given in words; binding and its absence hold for the method and conditions named. Some results given as binding are weak or reduced against the parent protein; the word gives no strength.

Chains of the proteins cited; added tags and fusions are not shown.
UniProt Q13148: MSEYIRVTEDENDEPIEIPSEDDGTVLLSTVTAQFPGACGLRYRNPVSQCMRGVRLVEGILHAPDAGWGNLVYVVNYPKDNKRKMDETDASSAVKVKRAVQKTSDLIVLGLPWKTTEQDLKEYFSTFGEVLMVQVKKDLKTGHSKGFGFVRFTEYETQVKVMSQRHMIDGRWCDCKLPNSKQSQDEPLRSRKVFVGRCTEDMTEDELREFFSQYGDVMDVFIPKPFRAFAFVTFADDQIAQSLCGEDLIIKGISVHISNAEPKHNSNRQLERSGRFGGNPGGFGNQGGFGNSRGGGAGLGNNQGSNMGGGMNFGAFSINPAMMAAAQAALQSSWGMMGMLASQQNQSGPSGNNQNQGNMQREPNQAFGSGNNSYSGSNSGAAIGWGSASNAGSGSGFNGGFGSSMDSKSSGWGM

Target: TDP-43 associated with frontotemporal dementia (FTD), from FTD human brain tissue (human) (UniProt Q13148)
Assay: phage ELISA on human brain tissue

B1: TDP-43 monomer clone #5 (scFv)
scFv: MAEVQLLESGGGLVRPGGSLRLSCAASGFTFSSYAMSWVRQAPGKGLEWVSDIANTGDATGYADSVKGRFTISRDNSKNTLYLQMNSLRAEDTAVYYCAKTGAAFDYWGQGTLVTVSSGGGGSGGGGSGGGGSTDIQMTQSPSSLSASVGDRVTITCRASQSISSYLNWYQQKPGKAPKLLIYAASTLQSGVPSRFSGSGSGTDFTLTISSLQPEDFATYYCQQSSSDPATFGQGTKVEIKRAA
notes: Tested as scFv attached to a phage particle, tagged with a signal moiety when used for detection; also called monomer phage #5
binding: binds
